This note sets out measurements from publication PMC11206880, “The RNA Helicase Ded1 from Yeast Is Associated with the Signal Recognition Particle and Is Regulated by SRP21” (Molecules, 2024).

Amino acid sequences for entries named in this document (tags omitted).
UniProt P06634: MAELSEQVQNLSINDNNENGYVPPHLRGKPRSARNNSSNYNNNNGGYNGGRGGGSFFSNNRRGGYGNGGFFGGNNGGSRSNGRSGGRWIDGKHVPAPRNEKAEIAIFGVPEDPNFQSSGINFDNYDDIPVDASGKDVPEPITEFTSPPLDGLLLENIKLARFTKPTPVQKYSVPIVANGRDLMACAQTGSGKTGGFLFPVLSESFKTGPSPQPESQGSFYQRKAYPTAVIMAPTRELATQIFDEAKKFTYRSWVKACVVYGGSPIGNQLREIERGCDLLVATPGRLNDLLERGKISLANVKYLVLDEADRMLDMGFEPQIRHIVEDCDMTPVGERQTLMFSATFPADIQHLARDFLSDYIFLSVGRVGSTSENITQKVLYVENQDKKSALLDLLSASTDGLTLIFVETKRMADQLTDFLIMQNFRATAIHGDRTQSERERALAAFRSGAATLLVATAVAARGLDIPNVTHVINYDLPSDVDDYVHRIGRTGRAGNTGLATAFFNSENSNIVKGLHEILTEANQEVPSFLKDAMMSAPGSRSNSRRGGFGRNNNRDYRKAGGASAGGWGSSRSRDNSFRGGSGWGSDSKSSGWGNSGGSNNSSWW

B1: SRP68 (protein, UniProt P38687 1-599)
chain: MVAYSPIIATYGNRAEQFLETDSDFAKYHAKLNKKLQHLRSRCHLVTKDTKKYSSKNKYGEINSEDYDNKTKLIGVLILLHAERDLALAETLKLRARQRGKLKKSEEKVLSTRLKKACKTADKLVNVTQNEQQWITRAQYLAFAKLVHSEYLINGKRFKRKDNAKISNNLALVFAALEHLKNLSLLAEEVVDNIVNKYQYSLKQYAGNLITTPEINNFIVERVQSDENKDDELVKLLLDNGFNMKKITTSTEDQKVTTNINWRSFNAKIIDAEVAQFLEQGLSIHPTQITQYTQRLSKLEKALDRHEFFIANHDDQDDIDEMVENSSENNQIILAYIKYNILLTSISRERDLFTHLWNQWLKLNTSLPSKLTKYKEMERIVKNLTKYLSDIMELPGVYSDDELLSQLDLCKLYFQLFLNTGCLSVLYQSKGRYMEALALYVDAYRRLENKLSEIESLDEILLPANLLSLNSVRSLQKRIENGGNSVITLAEYEKRNHGGSLGKYDLTVIEKLDSKKILPTDIQLKNLFPLKPKMLPIPSKPTLFDLAFNYITYDKQEPSASQVKDSVTETESISQTPISNEQTEGEPKKKRGFLGLFGR
B2: SRP21 (protein, UniProt P32342 1-167)
chain: MSVKPIDNYITNSVRLFEVNPSQTLFSISYKPPTQKTDTKVSFRTHNSHLSLNYKFTTNKSKDVSRLLSALGPRGVSITPGKIEKIAQSKKKNNKIKESSKKIKGKSIQDIVGLATLIVNTDVEKSDPAAKKTATEPKQKANAVQNNNGNSAASKKKKNKNKGKKKR
B3: His-tagged SRP14 (natural protein, yeast (S. cerevisiae), UniProt P38985 1-146, looked up)
chain: MANTGCLSPGAFLSKVPEFFQTANEKHITVRLTAKRLIEHDPVEGNLEFDSTNHPDYDVSKKASEISVSSRSDREYPLLIRMSYGSHDKKTKCSTVVKASELDQFWQEYSSVFKGGMQNLIKKKKKKSKNGTISKTGKKNKVAKKN
notes: SRP14 of yeast, subcloned into the NdeI and XhoI sites of pET22b; source: E. coli Rosetta (DE3), purified (Ni-NTA)
B4: His-tagged Sec65 (natural protein, yeast (S. cerevisiae), UniProt P29478 1-273, looked up)
chain: MPRLEEIDDFNDIDDLDMELAELDPSLRTPIAPKITPKVVRSQDQENPAFLPGTNNNSNSNNNSSNEKEQLSFINPKTGKVERSEAISKKDLEEVKRFQVLYPCYFDINRSHKEGRRVPKELAVENPLAKTMADAVRELGILCIFEGEKCHPQDFGNPGRIRVLFKENGQLIGAATKFKGGKRQLMKAVGEYMKRHPTTIESLREIPYGPDFDNIEFKKIPRVKGFKMNEIVPLHSPFLMGHPMTKSVYETPKITAAEKSFKPPKNKYKVVRR
notes: Sec65 of yeast, cloned into the XhoI and BamHI sites of pET19b; source: E. coli Rosetta (DE3), purified (Ni-NTA)

Results are given in words; binding and its absence hold for the method and conditions named. Binding seen in cells or lysates may run through a third protein. A yes stands for co-enrichment or nearness to the bait. Other partners may have been found.

For this assay, the target named is Ded1 (Saccharomyces cerevisiae (endogenous in yeast extract)) (UniProt P06634). The assay can be described thus: affinity purification with mass spectrometry; Ded1-specific IgG pull-down of polysome sucrose-gradient fractions of yeast; nano-LC ESI MS/MS.
Take B1: the binding result is reported as “binds”.
With B2 the entry was “binds”; with B3, “binds”; with B4, “binds”.
